Laboratory results from PubChem BioAssay AID2685 (National Center for Advancing Translational Sciences (NCATS), 2010).
Some of the results follow. The main result of the screen is listed elsewhere. These columns were measured beside it and carry no call. Compounds called inactive in the main read-out are mostly missing here. Words in brackets tell the shape of the fitted curve; partial curves, single points and poor fits give uncertain potencies.

Assay: qHTS Assay for Lipid Storage Modulators in Drosophila S3 Cells;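 as to cell number change: cells counted by Cell Tracker Red CMTPX staining in the red channel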
Settings: BODIPY lipid droplet fluorescence, 18-24 h; for cell number change: measured here: cell count max response, cells fed with added oleic acid
In short: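 Drosophila S3 cells loaded with oleic acid (400 uM, as added) and compounds at several concentrations; lipid droplets imaged by 488-nm laser-scanning cytometry, 500–530 nm intensity and object ratio to cell channel. Percent activity normalized to 20 uM Triacsin C.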

[1] = measured here: lipid fluorescence (Fed channel) AC50, cells fed with added oleic acid
[2] = measured here: cell number channel AC50, cells fed with added oleic acid

Row | Structure (SMILES) | cell number change [%] | AC50 [1] | AC50 [2]
1 | COc1ccc(C2SCCN2S(=O)(=O)c2ccc(NC(C)=O)cc2)cc1OC (stereo not given) | 5.24 | 20.6 µM [rising, partial curve] | 
2 | CCN(CC)C(=O)Nc1ccc(Br)cc1 | -46.1 | 29.1 µM [falling, single point] | 
3 | CSc1ccccc1NC(=O)CN(C)C(=O)CCc1c[nH]c2ccccc12 | -2.56 | 1.3 µM [falling, full curve] | 
4 | COc1cc(C(=S)N2CCOCC2)ccc1OC(=O)c1ccccc1 | -16.9 |  | 
5 | COc1ccc(-c2cc(C(=O)O)[nH]n2)cc1OC |  | 9.2 µM [falling, partial curve] | 
6 | CCc1nc2ccc(C(=O)NCCc3ccc(OC)cc3)cc2nc1CC | -60.3 |  | 23.1 µM [falling, partial curve, poor fit]
7 | Cc1ccsc1/C=N/NC(=O)c1nnn(-c2nonc2N)c1C(C)C | -32.2 |  | 0.146 µM [falling, full curve, poor fit]
8 | CCC(C)NC(=O)c1ccccc1NC(=O)c1ccc(CSc2ccccc2)cc1 (stereo not given) | -13.9 |  | 
9 | Cc1ccc(S(=O)(=O)N2CCOCC2)cc1C(=O)NCC1CCCO1 (stereo not given) | 10.6 | 0.164 µM [rising, full curve, poor fit] | 
10 | Cc1ccc(S(=O)(=O)NCC(=O)N(CC(=O)NC(C)(C)C)Cc2ccc3c(c2)OCO3)cc1 | -0.84 |  | 
11 | O=C(/C=C/c1cccc([N+](=O)[O-])c1)c1ccc2c(c1)OCCO2 |  | 16.4 µM [falling, partial curve, poor fit] | 
12 | COC(=O)c1nc(NC(=O)C(C)(C)C)n[nH]1 | -9.96 | 29.1 µM [falling, single point] | 
13 | CN(C)c1ccc(NC(=O)c2ccc(COc3cccc(Cl)c3)o2)cc1 | 48.7 |  | 0.259 µM [rising, partial curve, poor fit]
14 | CC(C)C1Nc2c(C(=O)O)cccc2C(Nc2ccccc2C(=O)O)C1(C)C (stereo not given) | -31.4 | 0.517 µM [falling, single point] | 0.82 µM [falling, full curve]
15 | Cc1ccc(Nc2nnc(SCC(=O)NC3CCS(=O)(=O)C3)s2)c(C)c1 (stereo not given) | -24.3 | 6.51 µM [falling, single point] | 
16 | Cn1cnnc1SCc1ccc(C(=O)N=Nc2c(O)n(C)c3ccccc23)cc1 | 22.5 | 0.411 µM [rising, full curve] | 
17 | Cc1cccc(-c2noc(CNS(=O)(=O)c3ccccc3)n2)c1 | 5.45 | 6.51 µM [rising, single point] | 
18 | CCOc1ccc(CN(C(=O)c2ccccn2)c2ccc(OC)c(Cl)c2)cc1 | 1.9 | 29.1 µM [falling, single point] | 
19 | COc1ccc(NC(=O)CSc2nc(N)c(NC(=O)c3ccccc3F)c(=O)[nH]2)cc1 | 27.2 | 0.164 µM [rising, full curve, poor fit] | 
20 | C=CCOc1ccc(/C=N/NC(=O)C(=O)Nc2ccccn2)cc1OC |  | 29.1 µM [rising, single point] | 

Row | Structure (SMILES) | cell number change [%] | AC50 [1] | AC50 [2]
21 | CCC(=O)Nc1nnc(S(=O)(=O)N(CC)c2ccc(OC)cc2)s1 | 1.42 |  | 
22 | CN(c1ccc(S(=O)(=O)N2CCOCC2)cn1)C1CCCCC1 | 31.2 | 7.31 µM [rising, partial curve] | 0.82 µM [rising, full curve]
23 | CC(=O)c1c(C)[nH]c(C(=O)COC(=O)c2cc(S(=O)(=O)N(C)c3ccccc3)ccc2Cl)c1C | 28.7 |  | 
24 | COc1cccc(NC(=O)CN(C)C(=O)CC(NC(=O)c2ccccc2Cl)c2ccccc2)c1 (stereo not given) | 9.12 |  | 0.517 µM [falling, single point]
25 | O=C(Nc1cccc2ccccc12)NC1CCCc2ccccc21 (stereo not given) | 25.9 |  | 0.651 µM [rising, full curve, poor fit]
26 | Cc1cc2nnc(SCC(=O)Nc3cc(S(=O)(=O)N4CCOCC4)ccc3Cl)n2c2ccccc12 | -7.11 | 23.1 µM [falling, partial curve] | 
27 | Cc1ccc(-c2cc(-c3nnc(SCC(=O)NC(C)C(C)C)n3N)c3ccccc3n2)cc1 (stereo not given) | -0.446 | 6.51 µM [rising, partial curve, poor fit] | 
28 | Oc1ccc(/C=N/N2CCN(C3c4ccccc4-c4ccccc43)CC2)cc1 | -35.6 | 23.1 µM [falling, single point] | 29.1 µM [falling, single point]
29 | O=C(Nc1cccnc1)C1OCCc2ccccc21 (stereo not given) | -44.1 | 3.66 µM [falling, full curve] | 4.11 µM [falling, full curve]
30 | O=C(c1ccc(Br)o1)N1CCN=C1SCc1cccnc1 | -1.2 |  | 
31 | Cc1ccc(NC(=S)c2nc3ccccc3[nH]2)cc1 | -15.4 | 23.1 µM [falling, partial curve] | 
32 | COc1ccccc1Nc1nc(C)cc(C)n1 | -1.06 |  | 
33 | CC(/C=C/c1ccco1)=N/NC(=O)c1ccccc1Cl | 51 |  | 29.1 µM [rising, single point]
34 | Cn1c(C(=O)N2CCN(c3nc4ccccc4s3)CC2)cc2sccc21 | -5.95 | 9.2 µM [rising, partial curve] | 
35 | COc1cc(C=O)ccc1OS(=O)(=O)c1ccc(NC(C)=O)cc1 | 32.5 | 2.91 µM [rising, single point] | 0.082 µM [rising, full curve, poor fit]
36 | CCOc1ccccc1NC(=O)c1ccccc1N(C)S(C)(=O)=O | 9.94 |  | 
37 | CN(Cc1nc2ccccc2c(=O)[nH]1)C(=O)c1ccc(S(=O)(=O)N2CCCC2)cc1 | -15.3 | 0.82 µM [falling, partial curve, poor fit] | 
38 | C=C(C)Cc1c(C)c(C#N)c2nc3ccccc3n2c1N1CCCCC1 | -67 |  | 29.1 µM [falling, single point]
39 | C=CCNC(=O)CN1c2cccc3cccc(c23)S1(=O)=O |  |  | 0.0058 µM [rising, full curve, poor fit]
40 | O=C(N/N=C/c1c[nH]c2ccccc12)c1cccs1 | 11.8 | 0.461 µM [rising, full curve, poor fit] | 

Row | Structure (SMILES) | cell number change [%] | AC50 [1] | AC50 [2]
41 | COc1ccc(/C=N/NC(=O)c2nonc2C)cc1 | -109 | 18.4 µM [falling, partial curve] | 14.6 µM [falling, partial curve, poor fit]
42 | Cc1ccc(-c2ccc(=O)n(Cc3cccc(Br)c3)n2)cc1 | 9.93 |  | 6.51 µM [rising, single point]
43 | CCN=C(NCC)SC1CC(=O)N(c2ccc(F)cc2)C1=O (stereo not given) | -19.8 | 0.58 µM [rising, single point] | 
44 | Cc1cccc(Oc2nc3ccccn3c(=O)c2/C=C(\C#N)C(=O)NC2CCS(=O)(=O)C2)c1C (stereo not given) | -8.57 |  | 
45 | O=C(Nc1nc(-c2ccccc2)cs1)c1ccccc1F | 1.66 | 29.1 µM [falling, single point] | 
46 | C=C(CC)C(=O)c1ccc(OCC(=O)O)c(Cl)c1Cl | -57.7 | 18.4 µM [falling, partial curve] | 29.1 µM [falling, single point]
47 | O=C(COc1ccccc1[N+](=O)[O-])Nc1ccc(CN2CCOCC2)cc1 |  | 6.51 µM [rising, partial curve, poor fit] | 6.51 µM [rising, single point]
48 | CN1CCN(c2ccc(C(=O)c3ccc(Br)cc3)cc2[N+](=O)[O-])CC1 | 3.7 | 2.91 µM [falling, single point] | 
49 | COc1cccc(NC(=O)N2CCC(NC(=O)C3CCCCC3)CC2)c1 | 10.1 | 0.00411 µM [falling, full curve, poor fit] | 
50 | CCn1c(C)c(C)c2cc(C(=O)NCCCN3CCCCC3C)ccc21 (stereo not given) | -5.13 | 25.9 µM [rising, single point] | 
51 | COc1ccc(CNC(=O)CS(=O)Cc2nc(-c3ccc(OC)c(OC)c3)oc2C)cc1 (stereo not given) |  | 0.58 µM [rising, single point] | 
52 | COc1ccc2ccn(S(=O)(=O)c3ccccc3)c2c1 | 16.7 |  | 
53 | COc1cccc(NC(=O)COc2nc3ccccc3nc2C)c1 | 31.5 | 0.103 µM [rising, full curve] | 0.291 µM [rising, full curve, poor fit]
54 | O=C1/C(=C/c2ccccn2)SC(=S)N1c1cccc(O)c1 | -23.6 | 2.59 µM [falling, partial curve] | 
55 | Cc1ccc(NC(=O)CN2CCN(CCN=CC3=C(O)CC(C)(C)CC3=O)CC2)cc1 | 103 | 0.231 µM [falling, single point] | 18.4 µM [rising, partial curve]
56 | CCCCNS(=O)(=O)c1ccc2nc(SCC(=O)c3ccccc3OC)[nH]c2c1 | 2.62 | 23.1 µM [falling, single point] | 0.00517 µM [rising, full curve, poor fit]
57 | Cc1noc(C)c1COc1ccccc1C(=O)N1CCN(S(=O)(=O)c2ccccc2C(F)(F)F)CC1 | 45.9 |  | 23.1 µM [rising, single point]
58 | CCC(C)NCCOc1ccc(C(C)(C)c2ccccc2)cc1 (stereo not given) | -37.4 | 20.6 µM [falling, single point] | 16.4 µM [falling, single point]
59 | O=c1c2c(nc3cc(-c4ccccc4Cl)[nH]n13)CCS2 | -6.6 |  | 
60 | COc1cc(OC)c(C(=O)OCC(=O)Nc2c(C)n(C)n(-c3ccccc3)c2=O)cc1OC | -17.5 | 0.00461 µM [falling, full curve, poor fit] | 

Four entries from above, tab-delimited.
Row	Structure (SMILES)	cell number change [%]	AC50 [1]	AC50 [2]
52	COc1ccc2ccn(S(=O)(=O)c3ccccc3)c2c1	16.7		
53	COc1cccc(NC(=O)COc2nc3ccccc3nc2C)c1	31.5	0.103 µM [rising, full curve]	0.291 µM [rising, full curve, poor fit]
54	O=C1/C(=C/c2ccccn2)SC(=S)N1c1cccc(O)c1	-23.6	2.59 µM [falling, partial curve]	
55	Cc1ccc(NC(=O)CN2CCN(CCN=CC3=C(O)CC(C)(C)CC3=O)CC2)cc1	103	0.231 µM [falling, single point]	18.4 µM [rising, partial curve]
